These are yes or no findings as the source states them, for the method shown. In cells and extracts the contact can be indirect.
Target: TAP-HA-Smad2 (human) (UniProt Q15796)
Experiment: pull-down

The chains behind the UniProt entries cited, without tags or fusion partners. Residues count along the entry.
UniProt Q15796, residues 2-467: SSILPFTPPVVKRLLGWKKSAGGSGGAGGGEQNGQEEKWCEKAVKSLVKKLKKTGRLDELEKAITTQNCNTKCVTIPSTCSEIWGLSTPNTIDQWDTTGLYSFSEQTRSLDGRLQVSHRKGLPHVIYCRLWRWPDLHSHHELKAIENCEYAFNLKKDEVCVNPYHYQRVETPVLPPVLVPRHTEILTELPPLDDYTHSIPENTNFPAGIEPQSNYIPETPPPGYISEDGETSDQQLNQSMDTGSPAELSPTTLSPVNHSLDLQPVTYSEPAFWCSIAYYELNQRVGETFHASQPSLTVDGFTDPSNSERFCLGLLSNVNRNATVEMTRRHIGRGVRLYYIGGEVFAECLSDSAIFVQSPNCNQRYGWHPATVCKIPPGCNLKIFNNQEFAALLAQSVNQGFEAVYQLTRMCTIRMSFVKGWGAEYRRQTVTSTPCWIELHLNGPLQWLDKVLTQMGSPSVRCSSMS
UniProt Q9NXV2: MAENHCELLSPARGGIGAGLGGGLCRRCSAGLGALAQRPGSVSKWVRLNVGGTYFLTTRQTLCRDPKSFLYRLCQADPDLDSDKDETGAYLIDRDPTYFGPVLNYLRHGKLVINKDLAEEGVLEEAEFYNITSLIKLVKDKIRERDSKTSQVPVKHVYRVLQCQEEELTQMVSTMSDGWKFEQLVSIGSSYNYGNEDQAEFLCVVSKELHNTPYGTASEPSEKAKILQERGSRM

binding: no binding
Substance: HA-KCTD5 (from UniProt Q9NXV2 1-234)
